Positions count from the first letter of the chain named. Numbers in names are those of the source. These are yes or no findings as the source states them, for the method shown. Binding seen in cells or lysates may run through a third protein. Binding can be weak; no strength is given. Tags and fused reporters may be left off the sequences shown.

The text below walks through data of paper PMC6668832, “Structural basis for recognition of the tumor suppressor protein PTPN14 by the oncoprotein E7 of human papillomavirus” (PLoS Biology, 2019).

The target in this experiment is Flag-tagged C-terminal domain of HPV18 E7 (pcDNA3-Flag) (human papillomavirus 18 (HPV18)). Put plainly: co-IP; lysates of HeLa (Fig 5C) or C33a (Fig 5D) cells transiently expressing PTPN14 and Flag-tagged HPV18 E7 C-terminal constructs for 24 hours; anti-Flag M2 affinity gel; immunoblot. For orientation: Immunoblotting shows a protein as a band on a membrane.

B1: wild-type PTPN14 (pcDNA3-V5-PTPN14-wild type) (protein, UniProt Q15678 1-1187)
chain: MPFGLKLRRTRRYNVLSKNCFVTRIRLLDSNVIECTLSVESTGQECLEAVAQRLELRETHYFGLWFLSKSQQARWVELEKPLKKHLDKFANEPLLFFGVMFYVPNVSWLQQEATRYQYYLQVKKDVLEGRLRCTLDQVIRLAGLAVQADFGDYNQFDSQDFLREYVLFPMDLALEEAVLEELTQKVAQEHKAHSGILPAEAELMYINEVERLDGFGQEIFPVKDNHGNCVHLGIFFMGIFVRNRIGRQAVIYRWNDMGNITHNKSTILVELINKEETALFHTDDIENAKYISRLFATRHKFYKQNKICTEQSNSPPPIRRQPTWSRSSLPRQQPYILPPVHVQCGEHYSETHTSQDSIFHGNEEALYCNSHNSLDLNYLNGTVTNGSVCSVHSVNSLNCSQSFIQASPVSSNLSIPGSDIMRADYIPSHRHSAIIVPSYRPTPDYETVMRQMKRGILHTDSQSQSLRNLNIINTHAYNQPEDLVYSQPEMRERHPYTVPYGPQGVYSNKLVSPSDQRNPKNNVVPSKPGASAISHTVSTPELANMQLQGSHNYSTAHMLKNYLFRPPPPYPRPRPATSTPDLASHRHKYVSGSSPDLVTRKVQLSVKTFQEDSSPVVHQSLQEVSEPLTATKHHGTVNKRHSLEVMNSMVRGMEAMTLKSLHLPMARRNTLREQGPPEEGSGSHEVPQLPQYHHKKTFSDATMLIHSSESEEEEEEAPESVPQIPMLREKMEYSAQLQAALARIPNKPPPEYPGPRKSVSNGALRQDQASLPPAMARARVLRHGPAKAISMSRTDPPAVNGASLGPSISEPDLTSVKERVKKEPVKERPVSEMFSLEDSIIEREMMIRNLEKQKMAGLEAQKRPLMLAALNGLSVARVSGREENRVDATRVPMDERFRTLKKKLEEGMVFTEYEQIPKKKANGIFSTAALPENAERSRIREVVPYEENRVELIPTKENNTGYINASHIKVVVGGAEWHYIATQGPLPHTCHDFWQMVWEQGVNVIAMVTAEEEGGRTKSHRYWPKLGSKHSSATYGKFKVTTKFRTDSVCYATTGLKVKHLLSGQERTVWHLQYTDWPDHGCPEDVQGFLSYLEEIQSVRRHTNSMLEGTKNRHPPIVVHCSAGVGRTGVLILSELMIYCLEHNEKVEVPMMLRLLREQRMFMIQTIAQYKFVYQVLIQFLQNSRLI
For B1, the binding result is given as “binds”.

B2: PTPN14 construct containing F1044S∙G1055Q∙E1095A mutations (cellular) (protein, UniProt Q15678 1-1187)
chain: B1 chain with F1044S, G1055Q, E1095A
For the molecule B2, the binding entry was “no binding”.
